Our source for the binding values is article PMC13489962, “Small-molecule modulation of β-arrestins” (Nature, 2026).

Chains of the proteins cited; added tags and fusions are not shown.
UniProt P29066: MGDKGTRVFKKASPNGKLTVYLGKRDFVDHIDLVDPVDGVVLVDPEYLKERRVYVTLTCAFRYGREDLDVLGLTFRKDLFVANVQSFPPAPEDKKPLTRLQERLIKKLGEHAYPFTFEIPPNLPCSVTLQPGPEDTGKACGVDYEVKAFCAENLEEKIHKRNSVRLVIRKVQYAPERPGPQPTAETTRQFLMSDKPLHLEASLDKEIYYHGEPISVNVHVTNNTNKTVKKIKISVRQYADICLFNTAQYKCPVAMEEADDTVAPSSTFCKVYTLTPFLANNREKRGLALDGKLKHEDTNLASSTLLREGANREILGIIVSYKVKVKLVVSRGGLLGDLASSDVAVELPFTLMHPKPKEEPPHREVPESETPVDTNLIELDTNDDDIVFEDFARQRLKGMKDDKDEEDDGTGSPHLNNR
UniProt P53779: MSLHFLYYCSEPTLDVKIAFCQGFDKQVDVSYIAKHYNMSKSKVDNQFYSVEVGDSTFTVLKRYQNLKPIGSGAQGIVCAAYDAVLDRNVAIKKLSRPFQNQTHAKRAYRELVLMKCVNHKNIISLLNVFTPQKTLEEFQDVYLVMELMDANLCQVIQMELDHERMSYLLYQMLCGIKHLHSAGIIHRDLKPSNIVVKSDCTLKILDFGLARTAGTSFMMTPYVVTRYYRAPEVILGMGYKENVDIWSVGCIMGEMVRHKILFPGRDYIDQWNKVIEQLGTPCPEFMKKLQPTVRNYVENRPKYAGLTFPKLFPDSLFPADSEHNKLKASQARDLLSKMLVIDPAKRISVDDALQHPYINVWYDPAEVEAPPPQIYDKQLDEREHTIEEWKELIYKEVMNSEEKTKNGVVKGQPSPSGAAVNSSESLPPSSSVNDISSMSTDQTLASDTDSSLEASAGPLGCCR

Results are given in words; binding and its absence hold for the method and conditions named. For some assays here: Binding seen in cells or lysates may run through a third protein. Some entries that bind do so weakly or less than the wild type.

Experiment [1] concerns the target angiotensin receptor (AT1R) in CHO-K1 PathHunter cells (UniProt P30556). Description: split reporter; PathHunter assay in CHO-K1 cells; modulators (50 μM, 30 min) or DMSO before ANGII (1 μM, 1 h).
In a further experiment the target is βARR1–Flag (UniProt P29066). Description: pull-down; βARR1–Flag (5 μM) as bait, with or without 30 min pre-incubation with 20-fold molar excess of Cmpd-5, Cmpd-46 or Cmpd-64 at room temperature; 15 μM SRC or JNK3 added; anti-Flag M2 affinity gel 1 h at room temperature; washes in 20 mM HEPES pH 7.5, 100 mM NaCl; Flag peptide elution; western blot; both purified.

Consider “βARR2 in CHO-K1 PathHunter cells (from UniProt P32121 1-409)”, for which the binding entry in experiment [1] is “binds”.
On to “JNK3 (from UniProt P53779 1-464) (enzyme)”, for which the binding entry with βARR1–Flag is given as “binds”.
